These are yes or no findings as the source states them, for the method shown. Binding seen in cells or lysates may run through a third protein. Some entries that bind do so weakly or less than the wild type.
Key:
[1] = target: FLAG-tagged TDP-43 (transactive response DNA-binding protein 43) (human) (UniProt Q13148); assay: co-IP; FLAG-TDP-43 immunoprecipitated on FLAG M2 magnetic beads under nondenaturing conditions from U2OS cells untreated or arsenite treated (500 uM, 1 hour); lysis buffer 50 mM tris-HCl pH 7.4, 150 mM NaCl, 1 mM EDTA, 1% Triton X-100, 20 mM NEM, RNase; 1 hour at 4°C; immunoblot for PIAS4
[2] = target: TDP-43 (transactive response DNA-binding protein 43), endogenous (human (endogenous in U2OS and human iPSC-derived motor neurons)) (UniProt Q13148); assay: proximity ligation; Duolink In Situ Red Kit with PIAS4 and TDP-43 antibodies; untreated and arsenite-treated cells (fig. S5D)

Amino acid sequences for entries named in this document (tags omitted).
UniProt Q13148: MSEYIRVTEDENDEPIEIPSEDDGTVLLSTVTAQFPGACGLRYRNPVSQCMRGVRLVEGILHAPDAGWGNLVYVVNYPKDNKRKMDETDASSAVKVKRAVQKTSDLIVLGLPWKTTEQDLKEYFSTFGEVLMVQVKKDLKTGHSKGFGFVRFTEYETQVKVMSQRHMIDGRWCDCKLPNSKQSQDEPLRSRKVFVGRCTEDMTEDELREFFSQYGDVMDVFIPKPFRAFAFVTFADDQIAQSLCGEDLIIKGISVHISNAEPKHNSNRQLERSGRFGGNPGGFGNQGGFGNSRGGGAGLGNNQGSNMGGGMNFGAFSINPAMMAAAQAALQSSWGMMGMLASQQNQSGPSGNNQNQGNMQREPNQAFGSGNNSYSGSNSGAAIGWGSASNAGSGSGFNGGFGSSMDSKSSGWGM

binding [1]: binds | binding [2]: binds
B1: PIAS4 (protein inhibitor of activated STAT 4) (protein, UniProt Q8N2W9 1-510)
chain: MAAELVEAKNMVMSFRVSDLQMLLGFVGRSKSGLKHELVTRALQLVQFDCSPELFKKIKELYETRYAKKNSEPAPQPHRPLDPLTMHSTYDRAGAVPRTPLAGPNIDYPVLYGKYLNGLGRLPAKTLKPEVRLVKLPFFNMLDELLKPTELVPQNNEKLQESPCIFALTPRQVELIRNSRELQPGVKAVQVVLRICYSDTSCPQEDQYPPNIAVKVNHSYCSVPGYYPSNKPGVEPKRPCRPINLTHLMYLSSATNRITVTWGNYGKSYSVALYLVRQLTSSELLQRLKTIGVKHPELCKALVKEKLRLDPDSEIATTGVRVSLICPLVKMRLSVPCRAETCAHLQCFDAVFYLQMNEKKPTWMCPVCDKPAPYDQLIIDGLLSKILSECEDADEIEYLVDGSWCPIRAEKERSCSPQGAILVLGPSDANGLLPAPSVNGSGALGSTGGGGPVGSMENGKPGADVVDLTLDSSSSSEDEEEEEEEEEDEDEEGPRPKRRCPFQKGLVPAC
